Results from PubChem BioAssay AID330 (DTP/NCI, 2004).
The list does not hold the whole screen: it gathers tests that were run many times, whatever their T/C, doses with no T/C, and many T/C values between a quarter and a half above the control. Further doses and runs are listed elsewhere. T/C: endpoint of the treated group in % of that of the vehicle group. Some entries give survivors of the animals treated and no T/C: the source holds a T/C of zero for them, seemingly a mark for toxic or unscored doses. Some doses without a T/C left all or most animals alive at the check, yet need not have been tolerated: the source hardly ever lists a survival T/C far under the control, and the zero likely stands for such cases as well. Counts of survivors are from the toxicity check (mostly the fifth day) where no day follows; animals may have died later. Schedules are NCI's codes, read here as Q, the interval in days (D) or hours (H), X, the number of doses. Some doses were run more than once; their values stand side by side, smallest first. Where survival is the endpoint, this PubChem deposit counts one and a half times the control or more as active, and values a quarter to a half above the control carry no call in these data; other NCI protocols may use other cut-offs.

Test system: P388 leukemia ip, CD2F1 mice, survival T/C
Experiment: NCI In Vivo Anticancer Drug Screen. Data for tumor model P388 Leukemia (intraperitoneal) in CD2F1 (CDF1) mice
Details: T/C endpoint: median survival time, higher T/C = longer survival
[1] = dose: 400.0 mg/kg/injection, schedule: Q04DX003 (ip), vehicle: saline with Tween-80

COc1cccc2c1C(=O)c1c(O)c3c(c(O)c1C2=O)C[C@@](O)(C(C)O)C[C@@H]3OC1CC(N2CCOCC2C#N)C(O)C(C)O1 (some centres not stated)
T/C (dose: 0.05 mg/kg/injection, schedule: Q04DX003 (ip), vehicle: water): 134 % of control
survivor count (dose: 0.2 mg/kg/injection, schedule: Q04DX003 (ip), vehicle: water): 6 of 6 on day 9
survivor count (dose: 0.39 mg/kg/injection, schedule: Q04DX003 (ip), vehicle: distilled water + Tween-80): 0 of 6 on day 9
survivor count (dose: 0.78 mg/kg/injection, schedule: Q04DX003 (ip), vehicle: distilled water + Tween-80): 0 of 6 on day 9
survivor count (dose: 1.56 mg/kg/injection, schedule: Q04DX003 (ip), vehicle: distilled water + Tween-80): 0 of 6 on day 9
survivor count (dose: 3.12 mg/kg/injection, schedule: Q04DX003 (ip), vehicle: distilled water + Tween-80): 0 of 6 on day 9
survivor count (dose: 6.25 mg/kg/injection, schedule: Q04DX003 (ip), vehicle: distilled water + Tween-80): 0 of 6 on day 9
survivor count (dose: 12.5 mg/kg/injection, schedule: Q04DX003 (ip), vehicle: distilled water + Tween-80): 0 of 6 on day 9

CC(C)(c1ccccc1)c1ccc(O)cc1
survivor count (dose: 200.0 mg/kg/injection, schedule: Q04DX003 (ip), vehicle: saline with Tween-80): 2 of 6
survivor count [1]: 2 of 6

O=C(O)c1cccnc1C(=O)Nc1cccc2ccccc12
survivor count (dose: 120.0 mg/kg/injection, schedule: Q01DX005 (ip), vehicle: saline with Tween-80): 3 of 6 and 5 of 6

Cc1ccc(N2CCN(CCCC3(c4ccccc4)OCCO3)CC2C)cc1Cl (configuration not stated)
T/C [1]: 125 % of control

CC(=O)O/C(C#N)=C1\CCCC\C1=C(\C#N)OC(C)=O
survivor count (dose: 100.0 mg/kg/injection, schedule: Q01DX001 (ip), vehicle: saline with Tween-80): 1 of 6
survivor count (dose: 200.0 mg/kg/injection, schedule: Q01DX001 (ip), vehicle: saline with Tween-80): 0 of 6
survivor count (dose: 400.0 mg/kg/injection, schedule: Q01DX001 (ip), vehicle: saline with Tween-80): 0 of 6

NC1=NC(c2ccccc2)C=C(c2ccccc2)N1 (configuration not stated)
survivor count (dose: 100.0 mg/kg/injection, schedule: Q04DX002 (ip), vehicle: saline with Tween-80): 0 of 6
survivor count (dose: 200.0 mg/kg/injection, schedule: Q04DX002 (ip), vehicle: saline with Tween-80): 0 of 6
survivor count (dose: 400.0 mg/kg/injection, schedule: Q04DX002 (ip), vehicle: saline with Tween-80): 0 of 6

O=C1NC(c2cccc(OCc3ccccc3)c2)Nc2ccccc21 (configuration not stated)
survivor count (dose: 400.0 mg/kg/injection, schedule: Q01DX009 (ip), vehicle: Klucel (hydroxypropylcellulose) (HPC)): 6 of 6

CSc1nc(C)c(C(=O)CCN2CCN(c3ccccn3)CC2)s1
survivor count (dose: 240.0 mg/kg/injection, schedule: Q01DX005 (ip), vehicle: saline): 3 of 6

CC([NH-])C(=O)O.CC([NH-])C(=O)O.[Cu+2] (configuration not stated)
survivor count (dose: 6.25 mg/kg/injection, schedule: Q01DX009 (ip), vehicle: Klucel (hydroxypropylcellulose) (HPC)): 6 of 6
survivor count (dose: 25.0 mg/kg/injection, schedule: Q01DX009 (ip), vehicle: Klucel (hydroxypropylcellulose) (HPC)): 0 of 6
survivor count (dose: 50.0 mg/kg/injection, schedule: Q01DX009 (ip), vehicle: Klucel (hydroxypropylcellulose) (HPC)): 0 of 6
survivor count (dose: 100.0 mg/kg/injection, schedule: Q01DX009 (ip), vehicle: Klucel (hydroxypropylcellulose) (HPC)): 0 of 6
survivor count (dose: 200.0 mg/kg/injection, schedule: Q01DX009 (ip), vehicle: Klucel (hydroxypropylcellulose) (HPC)): 0 of 6

O=C1NC(=O)/C(=C\c2ccccc2)C2=C1CCCC2
survivor count (dose: 100.0 mg/kg/injection, schedule: Q01DX005 (ip), vehicle: Klucel (hydroxypropylcellulose) (HPC)): 2 of 6
survivor count (dose: 200.0 mg/kg/injection, schedule: Q01DX005 (ip), vehicle: Klucel (hydroxypropylcellulose) (HPC)): 0 of 6
